This is an account of results in paper PMC8472512, “Synthesis and Biochemical Evaluation of Baicalein Prodrugs” (Pharmaceutics, 2021).

Structures are written as SMILES.

A short description of this series: in vitro. As to conditions: PAMPA.

Take `CC(C)NCC(O)COc1ccc(CC(N)=O)cc1` (stereo not shown) [atenolol]: the Papp is below 0.1 ×10⁻⁶ cm/s.
